Measured data: PubChem BioAssay AID743121 (NCATS, 2013)

Assay: 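Knock-downs that sensitise breast cancer cells to camptothecin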 (primary screen)
System: MDA-MB-231 cells, a human breast cancer line
Reagents: single siRNA against human genes, 20 nM siRNA (0.8 pmol per well)
Timing: 120 h (drug added 48 h after transfection, read 72 h later)
Conditions: camptothecin 20 nM (about EC30) for 72 h; vehicle 0.1% DMSO in parallel plates
Measured: 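Cell viability by ATP luminescence (CellTiter-Glo) as % of non-targeting siRNA wells, and the log2 ratio of viability without drug over viability with camptothecin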
Direction: log2 vehicle/camptothecin viability: higher = stronger sensitisation to camptothecin
Hit rule: 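Each gene scored by redundant siRNA activity (RSA) over its individual siRNA ratios; a gene is called active at p < 0.001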
The deposit covers about 26,000 reagents; shown is a random part of them. In the full data, 167 (0.63%) are marked active. 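Calls are per gene from RSA p-values that are not deposited; an individual active-marked siRNA can sensitise only weakly.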 Reagents against one gene are numbered here. Not all columns of the deposit are shown.

log2 vehicle/camptothecin viability, by gene symbol and reagent
PMVK (phosphomevalonate kinase): #1 -0.165 inactive; #2 -0.526 inactive; #3 -0.121 inactive; #4 0.249 inactive
TIAM2 (TIAM Rac1 associated GEF 2): #1 0.664 inactive; #2 -0.306 inactive; #3 -0.124 inactive; #4 -0.216 inactive
DLG2 (discs large MAGUK scaffold protein 2): #1 -0.753 inactive; #2 -0.0487 inactive; #3 0.137 inactive; #4 -0.158 inactive
AKR1C6P (aldo-keto reductase family 1 member C6, pseudogene): #1 -0.0384 inactive; #2 0.0789 inactive; #3 -0.0457 inactive; #4 -0.0662 inactive

Laid out differently: 2 of the entries above
{"gene symbol": "DLG2 (discs large MAGUK scaffold protein 2)", "siRNA no.": 2, "log2 vehicle/camptothecin viability": -0.0487, "Outcome": "inactive"}
{"gene symbol": "DLG2 (discs large MAGUK scaffold protein 2)", "siRNA no.": 3, "log2 vehicle/camptothecin viability": 0.137, "Outcome": "inactive"}

The listing continues:
log2 vehicle/camptothecin viability, by gene symbol and reagent
GPHN (gephyrin): #1 -0.225 inactive; #2 0.209 inactive; #3 -0.0273 inactive; #4 -0.195 inactive
GRB2 (growth factor receptor bound protein 2): #1 0.342 inactive; #2 -0.323 inactive; #3 -0.0794 inactive; #4 0.16 inactive
MAP3K14 (mitogen-activated protein kinase kinase kinase 14): #1 -0.352 inactive; #2 -0.43 inactive; #3 -0.0727 inactive; #4 -0.127 inactive
